According to PubChem BioAssay AID330 (DTP/NCI, 2004):
The list shows only some results of the screen, not a fair sample: it is rich in T/C values a quarter to a half above the control, in often repeated tests (any T/C) and in doses without a T/C. Other doses and runs of a compound stand elsewhere. T/C: endpoint of the treated group in % of that of the vehicle group. Some doses have a count of surviving animals in place of a T/C: the source files T/C as zero there, which appears to mark a toxic dose or a test without result, not a measured value. Some doses without a T/C left all or most animals alive at the check, yet need not have been tolerated: survival well below the control is almost never listed, so the zero probably covers shortened survival too. Survivors were counted at the toxicity check, usually on the fifth day, unless a day is given; later deaths do not show. Schedules are NCI's codes, taken here to give the interval after Q, in days (D) or hours (H), and the number of doses after X. Some entries were tested several times; the results are listed from low to high. Where survival is the endpoint, the PubChem record calls one and a half times the control and up active, and a quarter to a half above the control has no call in these data; cut-offs in other NCI protocols can differ. Some T/C values are followed by the survivors on the day toxicity was checked, most often the fifth; where none is given, no animal had died by that day.

Tested on: P388 leukemia ip, CD2F1 mice, survival T/C
Assay: NCI In Vivo Anticancer Drug Screen. Data for tumor model P388 Leukemia (intraperitoneal) in CD2F1 (CDF1) mice
Settings: T/C endpoint: median survival time, higher T/C = longer survival
[1] = dose: 16.0 mg/kg/injection, schedule: Q04DX003 (ip), vehicle: other
[2] = dose: 200.0 mg/kg/injection, schedule: Q01DX009 (ip), vehicle: saline with Tween-80

CCN(CC)CCCNc1nccc2c(C)c3[nH]c4ccncc4c3cc12
T/C (dose: 1.0 mg/kg/injection, schedule: Q04DX003 (ip), vehicle: other, evaluated on day 30): 147, 153, 174 % of control
T/C (dose: 1.0 mg/kg/injection, schedule: Q04DX003 (ip), vehicle: other, evaluated on day 35): 150 % of control
T/C (dose: 2.0 mg/kg/injection, schedule: Q04DX003 (ip), vehicle: other, evaluated on day 30): 163, 165, 190 % of control
T/C (dose: 2.0 mg/kg/injection, schedule: Q04DX003 (ip), vehicle: other, evaluated on day 35): 154 % of control
T/C (dose: 4.0 mg/kg/injection, schedule: Q04DX003 (ip), vehicle: other, evaluated on day 30): 186 and 187 % of control
T/C (dose: 4.0 mg/kg/injection, schedule: Q04DX003 (ip), vehicle: other, evaluated on day 35): 150 % of control
survivor count (dose: 4.0 mg/kg/injection, schedule: Q04DX003 (ip), vehicle: other): 6 of 6
T/C (dose: 8.0 mg/kg/injection, schedule: Q04DX003 (ip), vehicle: other, evaluated on day 30): 179 % of control
T/C (dose: 8.0 mg/kg/injection, schedule: Q04DX003 (ip), vehicle: other, evaluated on day 35): 178 % of control
survivor count (dose: 8.0 mg/kg/injection, schedule: Q04DX003 (ip), vehicle: other): 2 of 6 and 6 of 6
T/C (dose: 8.0 mg/kg/injection, schedule: Q04DX003 (iv), vehicle: other): 146 % of control [5 of 6 alive]
T/C [1]: 196 % of control
survivor count [1]: 0 of 6 and 3 of 6
survivor count (dose: 16.0 mg/kg/injection, schedule: Q04DX003 (iv), vehicle: other): 0 of 6
survivor count (dose: 25.0 mg/kg/injection, schedule: Q04DX002 (ip), vehicle: other): 0 of 8 and 5 of 8
survivor count (dose: 30.0 mg/kg/injection, schedule: Q04DX002 (ip), vehicle: other): 2 of 8

COC1=C(OC)C(=O)C(SCCCCCCC2CCCCC2)=C(C)C1=O
survivor count (dose: 240.0 mg/kg/injection, schedule: Q01DX005 (ip), vehicle: saline + Tween-80 + alcohol): 2 of 6

Cc1cn(C2CC(O)C(CO)O2)c(=O)[nH]c1=O (stereo unspecified)
T/C (dose: 32.0 mg/kg/injection, schedule: Q01DX009 (ip), vehicle: saline): 96 [5 of 6 alive], 97, 100, 105 % of control
T/C (dose: 64.0 mg/kg/injection, schedule: Q01DX009 (ip), vehicle: saline): 91, 100, 101, 109 % of control
T/C (dose: 128.0 mg/kg/injection, schedule: Q01DX009 (ip), vehicle: saline): 91, 99, 101, 127 % of control
T/C (dose: 256.0 mg/kg/injection, schedule: Q01DX009 (ip), vehicle: saline): 91, 92, 98, 102 % of control
T/C (dose: 500.0 mg/kg/injection, schedule: Q01DX009 (ip), vehicle: saline, evaluated on day 5): 102 and 103 % of control
T/C (dose: 500.0 mg/kg/injection, schedule: Q01DX009 (ip), vehicle: saline, evaluated on day 30): 96 and 109 % of control

C=C(C)CC1CN2CCc3cc(OC)c(OC)cc3C2CC1=O (stereo unspecified)
T/C (dose: 200.0 mg/kg/injection, schedule: Q01DX009 (ip), vehicle: Klucel (hydroxypropylcellulose) (HPC)): 125 % of control
T/C [2]: 131 % of control

Cc1cc(=O)n2c3c(c4c(cc13)c(CN(C)C)cc(=O)n4C)OC2
T/C (dose: 12.5 mg/kg/injection, schedule: Q01DX009 (ip), vehicle: saline with Tween-80): 133 % of control
T/C (dose: 25.0 mg/kg/injection, schedule: Q01DX009 (ip), vehicle: saline with Tween-80): 127 % of control
T/C (dose: 50.0 mg/kg/injection, schedule: Q01DX009 (ip), vehicle: saline with Tween-80): 130 % of control
survivor count (dose: 100.0 mg/kg/injection, schedule: Q01DX009 (ip), vehicle: saline with Tween-80): 1 of 6
survivor count [2]: 0 of 6

N#CCS(=O)(=O)OCCCl
T/C (dose: 11.0 mg/kg/injection, schedule: Q01DX005 (ip), vehicle: saline with Tween-80): 126 % of control
T/C (dose: 16.5 mg/kg/injection, schedule: Q01DX005 (ip), vehicle: saline with Tween-80): 127 % of control
T/C (dose: 25.0 mg/kg/injection, schedule: Q01DX005 (ip), vehicle: saline with Tween-80): 142 and 144 % of control
survivor count (dose: 50.0 mg/kg/injection, schedule: Q01DX005 (ip), vehicle: saline with Tween-80): 1 of 6 and 3 of 5
survivor count (dose: 100.0 mg/kg/injection, schedule: Q01DX005 (ip), vehicle: saline with Tween-80): 0 of 6
survivor count (dose: 200.0 mg/kg/injection, schedule: Q01DX005 (ip), vehicle: saline with Tween-80): 0 of 6
